# The list shows a part of the results. Only a few entries rise above the background.
# Tests used:
# Test in all cases: fluorescence intensity of antibody binding to polysaccharide-coupled beads; higher = stronger binding
# [1] = target: pneumococcal polysaccharide Pn6A
# [2] = target: pneumococcal polysaccharide Pn6B
# [3] = target: pneumococcal polysaccharide Pn6C
# [4] = target: pneumococcal polysaccharide Pn6D
# [5] = target: pneumococcal polysaccharide Pn7A
# [6] = target: pneumococcal polysaccharide Pn7B
# [7] = target: pneumococcal polysaccharide Pn7C
# [8] = antibody concentration 81.7561 ng/mL
# [9] = antibody concentration 437.17 ng/mL
# [10] = antibody concentration 2337.65 ng/mL
# [11] = antibody concentration 12500 ng/mL
# [12] = antibody concentration 0.1 ng/mL
# [13] = antibody concentration 0.534724 ng/mL
# [14] = antibody concentration 2.8593 ng/mL
# [15] = antibody concentration 15.2894 ng/mL
binder,measurement,setting,value
3S41.4 (protein) chain 1: EVQLVESGGGLVQPGGSLRLSCATSGFTFSNYWMYWFRQAPGKGLEWVSTISGSSTNTYYSGSVKGRFTISRDNAKNTLYLQMNSLRAEDTAVYYCARRGTDSSHWYFDLWGPGTPITVSS chain 2: EIVMTQSPATLSLSPGERATLSCRASQSVSSNLAWYQQKPGQGPRLLIYDASNRATGIPDRFGGSGSGTDFTLTISSLEPEDVGVYYCQQESNWPLTFGGGTKVEIK,fluorescence intensity,[1]; [8],21 MFI
same,fluorescence intensity,[1]; [9],22.5 MFI
same,fluorescence intensity,[1]; [10],27 MFI
same,fluorescence intensity,[1]; [11],40 MFI
same,fluorescence intensity,[2]; [12],20 MFI
same,fluorescence intensity,[2]; [13],18.5 MFI
same,fluorescence intensity,[2]; [14],17 MFI
same,fluorescence intensity,[2]; [15],18 MFI
same,fluorescence intensity,[2]; [8],19 MFI
same,fluorescence intensity,[2]; [9],20 MFI
same,fluorescence intensity,[2]; [10],23.5 MFI
same,fluorescence intensity,[2]; [11],38 MFI
same,fluorescence intensity,[3]; [12],20 MFI
same,fluorescence intensity,[3]; [13],19 MFI
same,fluorescence intensity,[3]; [14],31.5 MFI
same,fluorescence intensity,[3]; [15],61.5 MFI
same,fluorescence intensity,[3]; [8],61 MFI
same,fluorescence intensity,[3]; [9],66 MFI
same,fluorescence intensity,[3]; [10],73 MFI
same,fluorescence intensity,[3]; [11],82.5 MFI
same,fluorescence intensity,[4]; [12],17 MFI
same,fluorescence intensity,[4]; [13],15.5 MFI
same,fluorescence intensity,[4]; [14],17 MFI
same,fluorescence intensity,[4]; [15],14.8 MFI
same,fluorescence intensity,[4]; [8],17 MFI
same,fluorescence intensity,[4]; [9],17.2 MFI
same,fluorescence intensity,[4]; [10],18 MFI
same,fluorescence intensity,[4]; [11],33.8 MFI
same,fluorescence intensity,[5]; [12],18.5 MFI
same,fluorescence intensity,[5]; [13],20 MFI
same,fluorescence intensity,[5]; [14],20 MFI
same,fluorescence intensity,[5]; [15],20.2 MFI
same,fluorescence intensity,[5]; [8],19 MFI
same,fluorescence intensity,[5]; [9],23.5 MFI
same,fluorescence intensity,[5]; [10],42.5 MFI
same,fluorescence intensity,[5]; [11],183 MFI
same,fluorescence intensity,[6]; [12],16.2 MFI
same,fluorescence intensity,[6]; [13],14.5 MFI
same,fluorescence intensity,[6]; [14],17 MFI
same,fluorescence intensity,[6]; [15],16.2 MFI
same,fluorescence intensity,[6]; [8],14 MFI
same,fluorescence intensity,[6]; [9],13.5 MFI
same,fluorescence intensity,[6]; [10],20.2 MFI
same,fluorescence intensity,[6]; [11],54.2 MFI
same,fluorescence intensity,[7]; [12],16 MFI
same,fluorescence intensity,[7]; [13],14.5 MFI
same,fluorescence intensity,[7]; [14],15.5 MFI
same,fluorescence intensity,[7]; [15],16 MFI
same,fluorescence intensity,[7]; [8],14.2 MFI
same,fluorescence intensity,[7]; [9],17.5 MFI

# Given tab-delimited: entries from further up
binder	measurement	setting	value
3S41.4 (protein) chain 1: EVQLVESGGGLVQPGGSLRLSCATSGFTFSNYWMYWFRQAPGKGLEWVSTISGSSTNTYYSGSVKGRFTISRDNAKNTLYLQMNSLRAEDTAVYYCARRGTDSSHWYFDLWGPGTPITVSS chain 2: EIVMTQSPATLSLSPGERATLSCRASQSVSSNLAWYQQKPGQGPRLLIYDASNRATGIPDRFGGSGSGTDFTLTISSLEPEDVGVYYCQQESNWPLTFGGGTKVEIK	fluorescence intensity	[4]; [9]	17.2 MFI
same	fluorescence intensity	[5]; [12]	18.5 MFI
same	fluorescence intensity	[7]; [9]	17.5 MFI

# From the supplement of paper PMC11438910
